# System: acetic acid-induced writhing in Kunming mice
# Experiment: Acetic acid-induced writhing test
# Format: in vivo
smiles,measurement,setting,value
"CN1CC[C@]23c4c5ccc(O)c4O[C@H]2[C@@H](O)C=C[C@H]3[C@H]1C5 [MOP, morphine]",ED50,"Mus musculus, read-out: ED50 (median effective dose)",0.22 mg/kg
same,effect of NAL on the reduction of writhing number,"mouse, in vivo",NAL removed the effect of morphine

# From publication PMC9848282, “Antinociceptive activity of doliroside B” (Pharmaceutical Biology, 2023)
